Test in all cases: EMSA
In general terms: Mobility shift assays separate free from complexed probe on a gel.

By UniProt entry, the sequences of proteins in these tests, tags left out. Where a name states a change or a piece, a line headed by the entry shows the natural chain unless it says otherwise. Residues count along the entry.
UniProt P17839: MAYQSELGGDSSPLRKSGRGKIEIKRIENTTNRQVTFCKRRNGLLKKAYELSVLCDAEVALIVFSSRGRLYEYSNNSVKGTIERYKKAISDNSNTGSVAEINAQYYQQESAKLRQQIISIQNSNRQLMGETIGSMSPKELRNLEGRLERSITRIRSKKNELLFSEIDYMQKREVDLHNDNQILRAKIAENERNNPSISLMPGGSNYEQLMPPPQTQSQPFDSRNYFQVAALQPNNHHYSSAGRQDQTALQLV
UniProt O22456, 1-181, stated change not applied: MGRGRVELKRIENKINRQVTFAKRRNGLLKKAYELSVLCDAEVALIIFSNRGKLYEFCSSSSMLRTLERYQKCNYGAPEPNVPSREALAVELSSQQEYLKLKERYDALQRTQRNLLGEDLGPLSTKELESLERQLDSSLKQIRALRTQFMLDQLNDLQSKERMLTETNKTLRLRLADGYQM
UniProt P29381: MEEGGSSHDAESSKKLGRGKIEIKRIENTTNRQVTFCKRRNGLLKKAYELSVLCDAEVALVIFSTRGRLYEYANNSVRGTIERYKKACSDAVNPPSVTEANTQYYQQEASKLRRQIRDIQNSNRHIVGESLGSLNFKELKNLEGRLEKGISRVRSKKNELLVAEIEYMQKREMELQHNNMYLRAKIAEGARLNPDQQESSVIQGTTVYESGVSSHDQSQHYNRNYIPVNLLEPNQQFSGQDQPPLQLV
UniProt P29385: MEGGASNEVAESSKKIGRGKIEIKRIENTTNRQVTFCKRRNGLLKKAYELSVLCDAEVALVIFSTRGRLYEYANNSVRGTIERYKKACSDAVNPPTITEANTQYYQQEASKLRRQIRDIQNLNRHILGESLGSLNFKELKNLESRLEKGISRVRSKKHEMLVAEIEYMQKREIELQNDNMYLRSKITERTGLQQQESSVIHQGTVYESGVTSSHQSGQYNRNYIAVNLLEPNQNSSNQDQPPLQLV

For series [1], the target named is AG (Arabidopsis thaliana) (UniProt P17839). The note with it: 1.6 mM EDTA, 10.3 mM HEPES (pH not stated), 1 mM DTT, 1.3 mM spermidine HCl, 33.3 ng/uL poly dI/dC, 2.5% CHAPS, 4.3% glycerol, 0.1 ng probe in 12 uL, protein translated in vitro, label: 32P (dATP Klenow fill-in).
The target of series [2] is SEP3 (Arabidopsis thaliana) (UniProt O22456). The settings on record: 1.6 mM EDTA, 10.3 mM HEPES (pH not stated), 1 mM DTT, 1.3 mM spermidine HCl, 33.3 ng/uL poly dI/dC, 2.5% CHAPS, 4.3% glycerol, 0.1 ng probe in 12 uL, protein translated in vitro, label: 32P (dATP Klenow fill-in).
In series [3] the target is SEP3ΔC (Arabidopsis thaliana) (UniProt O22456). The note with it: 1.6 mM EDTA, 10.3 mM HEPES (pH not stated), 1 mM DTT, 1.3 mM spermidine HCl, 33.3 ng/uL poly dI/dC, 2.5% CHAPS, 4.3% glycerol, 0.1 ng probe in 12 uL, protein translated in vitro, label: 32P (dATP Klenow fill-in).
The target of series [4] is SHP1 (Arabidopsis thaliana) (UniProt P29381). The note with it: all shifted bands eliminated; 1.6 mM EDTA, 10.3 mM HEPES (pH not stated), 1 mM DTT, 1.3 mM spermidine HCl, 33.3 ng/uL poly dI/dC, 2.5% CHAPS, 4.3% glycerol, 6 ug/uL BSA; 0.1 ng probe in 12 uL; protein translated in vitro; label: 32P (dATP Klenow fill-in).
Series [5] concerns the target SHP2 (Arabidopsis thaliana) (UniProt P29385). The note with it: all shifted bands eliminated; 1.6 mM EDTA, 10.3 mM HEPES (pH not stated), 1 mM DTT, 1.3 mM spermidine HCl, 33.3 ng/uL poly dI/dC, 2.5% CHAPS, 4.3% glycerol, 6 ug/uL BSA; 0.1 ng probe in 12 uL; protein translated in vitro; label: 32P (dATP Klenow fill-in).
Where [6] appears, read: homodimer bands reduced significantly, 6 ug/uL BSA.
Setting [7] is: near identical to AtMUTE_i1, 6 ug/uL BSA.
[8] abbreviates: all shifted bands eliminated, 6 ug/uL BSA.
The mark [9] stands for this setting: similar to AtMUTE_i1, 6 ug/uL ….

Construct, isoform or probe ends are uncertain for at least one entry. A negative result means that nothing was seen under these conditions. At least one verdict was read from the data and is not stated in words by the source. For some assays here: Weaker means in comparison with the reference protein, sequence or condition of that experiment.

Regarding “CTCGAGGATCATGCATGATAATCTTTCTAATATTGGATTTCCCAACTTATTTATGCTGTAAGAAAACAAAATGTTGTGGTCTAGA (double strand) [mCArG_2]”, the binding result in series [1] (setting [6]), in series [2] (setting [6]) and in series [3] (setting [6]) was “binds more weakly” throughout.
“CTCGAGGATCATGCATGATAATCTTTCTAATATTGGATTTCCCAACTTACTATTTTTGGAAGAAAACAAAATGTTGTGGTCTAGA (double strand) [AtMUTE_i1]”: the binding result in series [1] (6 ug/uL BSA), in series [2] (6 ug/uL BSA) and in series [3] (6 ug/uL BSA) was “binds” in each case.
For the sequence “CTCGAGGATCATGCATGGTAATCTTTCTAATATCGGATAGTACTCCAAACTTACTAATCTTGGAAAAATATGTTGTGCCATCTTCTAGA (double strand) [EsMUTE_i1]”, the binding result in series [1] (setting [7]), in series [2] (setting [7]) and in series [3] (setting [7]) was “binds” throughout.
On to “CTCGAGGATCATGCATGGTTACCCTTTAATACTGGATATCCCCGACTTACTAATTTCGGAAAAATATGTTATGATCATGTCTAGA (double strand) [CrMUTE_i1]”, for which the binding result in series [1] (setting [7]), in series [2] (setting [7]) and in series [3] (setting [7]) was “binds” throughout.
For “CTCGAGGATCATGCATGATAATCTTTGACAGTTTTAATTTCCCAACTTATTTATGCTGTAAGAAAACAAAATGTTGTGGTCTAGA (double strand) [mCArG_1+2]”, the binding result in series [1] (setting [8]), in series [2] (setting [8]), in series [3] (setting [8]), in series [4] and in series [5] was “no binding” each time.
“CTCGAGGATCATGCATGATAATCTTTGACAGTTTTAATTTCCCAACTTACTATTTTTGGAAGAAAACAAAATGTTGTGGTCTAGA (double strand) [mCArG_1]”: the binding result in series [1] (setting [9]), in series [2] (setting [9]) and in series [3] (setting [9]) was “binds” each time.

Source of the values: paper PMC10593234.
